Laboratory results published in PubChem BioAssay AID602296 (Broad Institute, 2012).
Among all 2,000 compounds or so, about 190 (9.5%) were called active. Not shown: some 14% with an inconclusive outcome.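 How the source made its calls: active means fitted activation curve crossing 40% at a concentration no higher than the sample's top valid tested dose; inconclusive means flat fitted curve at 30% to 70% activation, or poor curve fit; inactive means signal decrease, flat curve within 30%, or the rest.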 This part holds few or none of the hits.

Assay: HSF-1 reporter activators over prolonged exposure, confirmation, cell-based, mouse, luciferase, cherry-pick, dose (AID 602296);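 further: test compounds applied by themselves with no MG132 co-treatment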
Details: NIH3T3-HGL HSF-1 response element luciferase, 48 h; at 26 µM (top of the series) unless noted

activation, inactive:
COC(=O)c1cn(NC(=O)C2CCC(C)CC2)c(=O)c2ccccc12 (stereo not drawn) -4.09%, Nc1nc(N)c(C=Nc2ccc(Br)cc2)c(Nc2ccc(Br)cc2)n1 -45.5%, CCc1nn(C(C)C(=O)NC(C)CCc2ccco2)c(=O)c2cc3occc3n12 (stereo not drawn) -7.46%, O=C(NCCn1cccn1)C1CCC(=O)N(CCc2cccc(F)c2)C1 (stereo not drawn) 2.1%, COC(=O)c1ccc(CSc2nnnn2-c2ccc(C)cc2C)o1 -6.78%, CCC(=O)Nc1c(S(=O)(=O)c2ccccc2)c2nc3ccccc3nc2n1C(C)c1ccccc1 (stereo not drawn) -20.5%, CC(=O)Nc1ccc(NC(=O)c2ccc(NS(=O)(=O)c3cc(C(C)(C)C)cc(C)c3C)cc2)cc1 -108%, COc1ccc(/C=N/n2cncn2)cc1COc1ccc(NC(C)=O)cc1 -15.9%, CCOC(=O)c1c(COc2ccccc2)oc2ccc(O)cc12 -12.8%, Cc1ccc(O)c(NC(=O)Cc2ccc3ccccc3c2)c1 0.04%, O=C(C=C=Nc1ccccc1)C(=O)N=C=Cc1ccccc1 -110%, Cc1ccc(C(=O)NC2CCCN(c3ccc(C(F)(F)F)cn3)C2)cn1 (stereo not drawn) -1.39%, Cc1ccc(-c2nn[nH]n2)cc1 12.1%, COc1ccc2[nH]c3c(C)c4ccncc4c(C)c3c2c1 -99.7%, Oc1[nH]c2ccccc2c1N=NC(=S)N1CCOCC1 -86.4%, O=C(CCl)c1ccc2c(c1)CCN2C(=O)C1CCCCC1 -12.1%, Cc1cc(C(=O)N/N=C/c2ccc([N+](=O)[O-])s2)c2ccccc2n1 -39.8%, O=C(CCn1c(=O)oc2ccccc21)Nc1ccccc1 5.77%, COC(CNC(=O)C1CCCN(S(=O)(=O)c2c(C)noc2/C=C/c2cccs2)C1)OC (stereo not drawn) -8.13%, O=C(CC1SC(=NCCc2ccccc2)N(/N=C/c2cccs2)C1=O)Nc1ccc(Cl)cc1 (stereo not drawn) 14.8%, CCN(CC)c1ccc([N+](=O)[O-])cc1C(=O)N1CCOCC1 1.22%, Cc1cccc(C(=O)NNC(=O)CCn2nnc3ccccc32)c1 14.8%, O=C(O)c1cc(-c2ccc(Cl)c(Cl)c2)n(-c2ccccc2)n1 -5.53%, O=C(COC(=O)c1cn(-c2ccccc2)nc1-c1ccccc1)c1ccc([N+](=O)[O-])cc1 -19.1%, COc1cc(NC(=O)c2cc([N+](=O)[O-])ccc2NC(=O)CNC2CCCCC2C)cc(OC)c1 (stereo not drawn) -47.9%, CCOC(=O)C1C(=O)OC(C)(C)C1C(C)C(=O)c1ccc(C)cc1C (stereo not drawn) -4.34%, CC(Oc1ccc(Cl)cc1)C(=O)OCC(=O)Nc1ncc(Cl)cc1Cl (stereo not drawn) 0.542%, COC(=O)CNC(c1ccccc1)c1cc(Br)ccc1N (stereo not drawn) -2.2%, Cc1cc2nc3c(=O)n(CCc4ccccc4)c(=O)[nH]c3nc2cc1N 6.23%, Cc1ccc(N(Cc2ccc(C(=O)Nc3ccccc3C(=O)NCc3ccco3)cc2)S(C)(=O)=O)cc1C -8.84%, Cc1cccc(NC(=S)N=Nc2c(O)[nH]c3ccccc23)c1 -34%, O=C(COc1ccc(Cl)cc1)NCCCNC(=O)c1ccccn1 -9.69%, FC(F)(F)c1ccc(Sc2nnc(-c3cccs3)n2CC2CCCO2)nc1 (stereo not drawn) 5.38%, CCCn1nc([N+](=O)[O-])c(C(C#N)c2nc3ccccc3o2)c(Cl)c1=O (stereo not drawn) -72.7%, Cn1c(Sc2ccc(C(F)(F)F)cc2[N+](=O)[O-])nnc1-c1ccccc1 -17.7%, O=C(CCCN1C(=O)c2cccc3cccc(c23)C1=O)Nc1ccon1 9.55%, O=C1C2CCCCN2C(=O)N1CCCN1CCN(c2ccc(F)cc2)CC1 (stereo not drawn) 2.81%, COc1ccc(C(=O)c2coc3ccc(O)c(CN(C)C)c23)cc1 15.4%, COc1ccc(CN2CC(C(=O)NCCCN3CCOCC3)CC2=O)cc1 (stereo not drawn) 0.184%, CCCCn1c(SCC(=O)c2ccc(O)c(O)c2)nc2ccsc2c1=O -75.2%, COc1ccc(CNC(=O)CN(Cc2ccccc2)C(=O)CCC(=O)Nc2nccs2)cc1 5.51%, COc1ccc(/C=c2\s/c(=C\C(=O)C(C)(C)C)[nH]c2=O)cc1O -30.3%, COc1ccc(C(=O)NC(=S)N2CCCCC2c2cccnc2)cc1OC (stereo not drawn) 7%, O=[N+]([O-])c1ccc(-c2nc(C(Cl)Cl)c3ccccc3n2)cc1 -99.1%, CC(C)c1ccc(N(C(=O)CNC(=O)c2ccco2)C(C(=O)NC2CCCC2)c2ccncc2)cc1 (stereo not drawn) 6.83%, COCc1cc(CN2CCCC(C(=O)Nc3ccc(-c4ccco4)cc3)C2)ccc1OC (stereo not drawn) 11.2%, CCn1c(-c2ccccc2)c(C(=O)CCl)c2ccccc21 -107%, CCOC(=O)c1sc(NC(=O)CCN2CCC(C)CC2)c(C(=O)OCC)c1C 34.9%, CCC1CCC2(CC1)SCC(=O)N2c1ccccc1 (stereo not drawn) -4.25%, COc1ccc(C2Nc3ccccc3C(=O)N2Cc2ccco2)cc1COc1ccc(F)cc1 (stereo not drawn) -24%, O=C(COC(=O)/C=C/c1ccc(Br)o1)NCCCN1CCCC1=O -9.42%, Cc1ccc(-c2ccc(=O)[nH]n2)cc1 6.96%, CCCc1nc2ccc(NC(=O)c3cccs3)cc2c(=O)n1Cc1ccccc1Cl -43.2%, CCOC(=O)C1CCCN(C(=O)c2ccc(Cl)c(S(=O)(=O)N3CCCCC3)c2)C1 (stereo not drawn) -9.23%, O=[N+]([O-])c1ccc(N2CCCCCC2)c([N+](=O)[O-])c1 -2.24%, O=C(CN(CC1CCCO1)S(=O)(=O)c1ccc(S(=O)(=O)NC2CC2)cc1)Nc1ccccc1 (stereo not drawn) -13.9%, O=c1c2sccc2nc(SCc2ccc([N+](=O)[O-])cc2)n1Cc1ccccn1 -7.99%, COc1ccc(-n2nc3c(N4CCC(C(=O)N5CCC(C)CC5)CC4)nnc(C)c3c2C)cc1 -33.5%, C#CCOCCOCCOCCNc1nc(N2CCN(C(=O)[C@H](Cc3cc4ccccc4[nH]3)n3cc(C(N)CC(C)C)nn3)CC2)nc(N2CCN(C(=O)[C@H](CCC(=O)O)n3cc(C(N)[C@H](C)CC)nn3)CC2)n1 (stereo partly drawn) -2.42%, Cc1cc(=O)[nH]c(-n2ncc(C#N)c2N)n1 -2.13%, Cc1ccc(C(=O)/C=C/c2cc(Br)cc(Br)c2O)o1 2.94%, CCOC(=O)CC1C(=O)NCCN1S(=O)(=O)c1cc(Cl)c(Cl)cc1Cl (stereo not drawn) 9.36%, O=S(=O)(Nc1cc2nc3ccccc3nc2n1Cc1ccccc1)c1ccc(Cl)cc1 -76.8%, COC(=O)c1cccc(C(=O)N2CCCC(C(=O)c3ccccc3OC)C2)c1 (stereo not drawn) -0.71%, CCCCNc1c2c3c(cccc3n(C)c1=O)C(=O)c1ccccc1-2 -25.9%, Cc1ccc(N2C(=O)C3CC(c4ccccc4)=C4C5C=CC(C6C(=O)N(c7ccc(C)cc7C)C(=O)C56)C4C3C2=O)c(C)c1 (stereo not drawn) -8.02%, Cc1ccc(S(=O)(=O)c2c(N)n(-c3ccccc3)c3nc4ccccc4nc23)cc1 8.69%, CCOC(=O)C(C)(C)N(Cc1ccc(C)cc1)S(=O)(=O)c1ccc(Cl)c([N+](=O)[O-])c1 -87.3%, NC(=O)COc1ccccc1 -6.51%, Cn1cnc([N+](=O)[O-])c1S(=O)(=O)c1ccc(Cl)cc1 -3.41% [at 6 µM], O=[N+]([O-])c1cccc(-c2ncc3ccccn23)c1 -2.6%, COc1ccc(/C=C/C(=O)C23CC4CC(CC(C4)C2)C3)cc1CN1CCOCC1 16.2%, O=C(NC1CCCN(Cc2ccccc2F)C1)c1cccs1 (stereo not drawn) -6.74%, O=C(CSC1=NCCN1)Nc1cccc(C(F)(F)F)c1 -21.6%, CCOC(=O)C1=C(C)N=c2s/c(=C\C(=O)OC)c(=O)n2C1c1ccc(OC)cc1 (stereo not drawn) 2.15%, Cc1ccc(C(C)(O)CS(=O)(=O)Cc2ccccc2Cl)cc1 (stereo not drawn) 3.42%, CC1CC(C)CN(C(=O)CCS(=O)(=O)c2ccc3c(c2)NC(=O)CS3)C1 (stereo not drawn) -22.2%, Cn1c(=O)c2c(nc(N/N=C/c3ccc(OC(=O)c4ccco4)cc3)n2Cc2ccc(F)cc2)n(C)c1=O -42%, COc1cc(-c2nc(-c3ccc4c(c3)-c3ccccc3S4(=O)=O)c(-c3ccccc3)[nH]2)cc(OC)c1O -40.3%, O=C(COc1ccc(Cl)cc1)Nc1ncc([N+](=O)[O-])s1 -82.4%, CCN(CC)CCCn1c(=S)[nH]c2ncccc2c1=O -3.45%, CCN(c1ccccc1)S(=O)(=O)c1cc(NC(=O)Nc2ccccc2C#N)ccc1Cl -22.2%, COc1ccc(NC(=O)CCc2nnc3ccc(NCc4ccc5c(c4)OCO5)nn23)cc1 -9.09%, CS(=O)(=O)c1ccc(Cl)c(C(=O)NCC2CCCCC2)c1 2.34%, Cc1ccccc1NC(=O)C(=Cc1ccc(C(=O)O)cc1)C(=O)Nc1ccccc1C -62.7%, CCC(CO)NCC#Cc1ccccc1 (stereo not drawn) -4.67%, Cc1ccc(C(=O)O/N=C(\N)Cc2cccc3ccccc23)cc1 -24.1%, O=C(Nc1c(S(=O)(=O)c2ccc(Cl)cc2)csc1Br)c1ccccc1Cl 12.2%
